No constants are given. Whether binding was seen depends on the method and setting. In cells and extracts the contact can be indirect. Some results given as binding are weak or reduced against the parent protein; the word gives no strength.
Legend:
[1] = molecular target: CD47 (human (endogenous in THP-1 and primary human macrophages)) (UniProt Q08722); assay: co-IP; cells incubated 15 min with purified TSP1 (0.1-100 ng/ml) or recombinant TSP1 domains before lysis; read-out is the loss of CD14 from the anti-CD47 (B6H12) immunoprecipitate; only the binder purified
[2] = molecular target: CD47 (human (endogenous in THP-1 and primary human macrophages)) (UniProt Q08722); assay: co-IP; lysates (NP-40 buffer: 50 mM Tris pH 8.0, 150 mM NaCl, 1% NP-40) of differentiated THP-1 cells and of primary human monocyte-derived macrophages; precipitation with anti-CD47 B6H12 or isotype control and Protein G beads at 4 °C; blot for CD14; cells untreated or treated 15 min with TSP1 or its recombinant domains

Amino acid sequences for entries named in this document (tags omitted). Residues count along the entry.
UniProt Q08722, residues 19-323: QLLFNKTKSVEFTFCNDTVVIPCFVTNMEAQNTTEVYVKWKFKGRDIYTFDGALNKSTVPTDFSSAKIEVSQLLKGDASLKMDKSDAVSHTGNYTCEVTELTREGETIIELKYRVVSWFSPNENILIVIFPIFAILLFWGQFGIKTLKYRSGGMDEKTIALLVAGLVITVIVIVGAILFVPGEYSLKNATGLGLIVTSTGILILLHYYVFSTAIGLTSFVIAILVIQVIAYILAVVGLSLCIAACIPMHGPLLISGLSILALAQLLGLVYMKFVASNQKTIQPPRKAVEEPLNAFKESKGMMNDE
UniProt P07996, residues 19-1170: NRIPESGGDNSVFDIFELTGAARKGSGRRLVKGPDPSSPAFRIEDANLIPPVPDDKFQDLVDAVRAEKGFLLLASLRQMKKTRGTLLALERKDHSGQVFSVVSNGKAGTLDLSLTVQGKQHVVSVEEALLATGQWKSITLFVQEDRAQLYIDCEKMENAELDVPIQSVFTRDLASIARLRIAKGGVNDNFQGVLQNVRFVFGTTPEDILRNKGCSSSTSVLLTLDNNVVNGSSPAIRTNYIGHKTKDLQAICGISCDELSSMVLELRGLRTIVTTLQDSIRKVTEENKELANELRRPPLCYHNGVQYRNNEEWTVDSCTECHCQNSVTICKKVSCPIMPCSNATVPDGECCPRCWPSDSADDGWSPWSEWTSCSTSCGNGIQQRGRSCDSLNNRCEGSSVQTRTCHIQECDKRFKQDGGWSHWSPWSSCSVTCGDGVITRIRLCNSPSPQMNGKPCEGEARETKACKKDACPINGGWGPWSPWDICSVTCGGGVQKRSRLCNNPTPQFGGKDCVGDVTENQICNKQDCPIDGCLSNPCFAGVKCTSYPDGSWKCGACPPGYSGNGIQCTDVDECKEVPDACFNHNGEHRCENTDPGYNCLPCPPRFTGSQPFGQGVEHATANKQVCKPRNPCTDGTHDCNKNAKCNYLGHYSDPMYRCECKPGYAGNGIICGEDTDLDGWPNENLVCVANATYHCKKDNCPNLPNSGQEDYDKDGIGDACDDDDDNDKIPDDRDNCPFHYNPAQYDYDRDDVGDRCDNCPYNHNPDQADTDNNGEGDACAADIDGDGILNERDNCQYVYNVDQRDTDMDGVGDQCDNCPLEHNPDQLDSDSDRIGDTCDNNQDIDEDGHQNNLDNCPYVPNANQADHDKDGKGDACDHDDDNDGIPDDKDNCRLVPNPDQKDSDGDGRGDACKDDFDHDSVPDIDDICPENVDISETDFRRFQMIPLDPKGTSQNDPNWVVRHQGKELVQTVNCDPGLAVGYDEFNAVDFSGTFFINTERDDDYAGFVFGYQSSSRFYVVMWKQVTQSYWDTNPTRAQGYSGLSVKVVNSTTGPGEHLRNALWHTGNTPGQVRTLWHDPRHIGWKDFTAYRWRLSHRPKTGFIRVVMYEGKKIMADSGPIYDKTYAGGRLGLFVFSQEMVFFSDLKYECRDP

binding [1]	binding [2]	Molecule
binds		thrombospondin-1 (from UniProt P07996 19-1170)
	binds	CD14 (receptor, UniProt P08571 20-345) TTPEPCELDDEDFRCVCNFSEPQPDWSEAFQCVSAVEVEIHAGGLNLEPFLKRVDADADPRQYADTVKALRVRRLTVGAAQVPAQLLVGALRVLAYSRLKELTLEDLKITGTMPPLPLEATGLALSSLRLRNVSWATGRSWLAELQQWLKPGLKVLSIAQAHSPAFSCEQVRAFPALTSLDLSDNPGLGERGLMAALCPHKFPAIQNLALRNTGMETPTGVCAALAAAGVQPHSLDLSHNSLRATVNPSAPRCMWSSALNSLNLSFAGLEQVPKGLPAKLRVLDLSCNRLNRAPQPDELPEVDNLTLDGNPFLVPGTALPHEGSMN
